Among the data in PubChem BioAssay AID493014 (National Center for Advancing Translational Sciences (NCATS), 2011) are AC50 values, retold here.

Some of the results follow. Further columns of the screen follow, without active or inactive calls. Compounds called inactive in the main read-out are mostly missing here. The note in brackets gives the kind of curve behind each potency; many fits are weak.

The assay in a line: qHTS Assay to Find Inhibitors of Chronic Active B-Cell Receptor Signaling. The settings on record: ABC-DLBCL IkBa-CBG/CBR reporter, luminescence ratio (green luciferase fused to IkBa over red control in TMD8 lymphoma cells), 4 h. The method in brief: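 Concentration-response series (up to 46 uM) were applied to TMD8 dual-reporter cells for 4 h at 37C with doxycycline. Green/red ratio, after filter-overlap correction, defined %Activity; red signal alone was normalised to basal cells and zero luminescence.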
On the technique in general: In qHTS, concentration-response curves come from the screen itself.

Where [1] appears, read: measured here: CBR red luminescence, cell number.
[2] abbreviates: measured here: IkBa-CBG green luminescence.

By AC50 is commonly meant the midpoint of the concentration-response curve, whichever way the signal moves. Turning to `COc1ccc(C(C)=O)cc1CSc1nnc(Nc2c(C)cccc2C)s1`, under setting [1], the AC50 is 18.4 µM [falling, single point].
Take `COc1ccc([N+](=O)[O-])cc1NC(=O)c1csc(C)c1`: under setting [2], the AC50 is 2.24 µM [rising, partial curve, poor fit].
As for `CC(C)OC(=O)c1c(NC(=O)CCn2nnc3ccccc32)sc2c1CCCC2`, the AC50 under setting [1] is 3.26 µM [falling, full curve, poor fit].
The same measure, in the same setting: the result for `CC1=NN(C(=O)c2nn(C)cc2Br)C(O)(C(F)(F)F)C1` (centres undefined) reads 14.6 µM [falling, partial curve]; that for `N=C1CCC(=N)c2c1c(O)c1ccccc1c2O`, 3.55 µM [falling, partial curve, poor fit].
Same read-out and setting: next, `Cn1c(=NC(=O)CS(=O)(=O)c2ccccc2)sc2ccccc21`: 29.1 µM [falling, single point]; `CCc1ccc(-c2nc(SCC(=O)N(CC)C3CCS(=O)(=O)C3)n[nH]2)cc1` (centres undefined): 0.00517 µM [rising, full curve, poor fit].
Consider `N#CCCn1cc(/C=N/NC(N)=S)c(-c2ccc(Br)cc2)n1`, for which the AC50 runs as follows: under setting [1], 35.5 µM [falling, single point]; under setting [2], 7.94 µM [falling, partial curve].
`CC(Sc1cccc[n+]1[O-])C(=O)Nc1cccc(S(=O)(=O)N2CCOCC2)c1` (centres undefined): the AC50 was 29.1 µM [falling, single point] under setting [1] and 25.9 µM [falling, single point] under setting [2].
Consider `O=C(CSc1nnnn1-c1ccccc1)Nc1nc(-c2ccccc2)ns1`, for which, under setting [1], the AC50 is 5.8 µM [rising, full curve].
Same read-out and setting: next, `NN/C(=C\[N+](=O)[O-])Nc1ccc(Cl)cc1`: 7.08 µM [rising, partial curve]; `Cc1cccc(NC(=O)CCC(=O)N2CCOCC2)n1`: 5.17 µM [rising, single point]; `COc1ccccc1C(=O)Nc1ccc2c(c1)CCCN2C(=O)c1ccccc1`: 3.55 µM [rising, partial curve, poor fit].
Still for that read-out and setting: the result for `Cc1nonc1C(=O)N/N=C/c1ccc([N+](=O)[O-])o1` reads 35.5 µM [falling, single point].
Still for that read-out and setting: next, `N/C(=N\OC(=O)CCc1ccccc1)c1ccccc1Cl`: 3.16 µM [rising, partial curve, poor fit]; `CN1c2ccc([N+](=O)[O-])cc2C(C)(C)C12C=Cc1cc(C(=O)O)ccc1O2` (centres undefined): 20 µM [falling, single point].
Regarding `N#Cc1c(-c2ccccc2)cc(C2CC2)nc1N`, the AC50 runs as follows: under setting [1], 12.6 µM [rising, partial curve]; under setting [2], 15.8 µM [falling, partial curve, poor fit].
`Cc1c(-c2nc(-c3cccnc3)no2)cccc1[N+](=O)[O-]`: the AC50 under setting [1] is 7.94 µM [rising, partial curve, poor fit].
As to `NC(=O)[C@@H]1CC2(CC(c3cccc(NC(=O)CC(c4ccccc4)c4ccccc4)c3)=NO2)CN1C(=O)c1ccc(Cl)cc1` (some centres undefined), the AC50 under setting [2] was 14.1 µM [rising, partial curve, poor fit].
Take `O=C(/C=C/c1ccco1)Nc1ccc(F)cc1`: under setting [1], the AC50 is 5.8 µM [falling, partial curve].
The same measure, in the same setting: the result for `Nc1nc(COC(=O)CCC(=O)c2ccc(Cl)cc2)nc(Nc2ccccc2)n1` reads 29.1 µM [falling, single point]; that for `COc1ccccc1NC(=O)Nc1ccc2c(c1)nc(C)n2C`, 7.94 µM [falling, partial curve].
As for `CCN(CC(=O)Nc1c(F)cccc1F)C(=O)c1ccc(COc2ccccc2)o1`, the AC50 under setting [1] was 20.6 µM [rising, single point].
The same measure, in the same setting: the result for `Cc1ccc(NC(=O)CN2CCN(CCN=CC3=C(O)CC(C)(C)CC3=O)CC2)cc1` reads 12.6 µM [falling, partial curve, poor fit]; that for `CCC(C)NCCOc1ccc(C(C)(C)c2ccccc2)cc1` (centres undefined), 17.8 µM [falling, single point].
Take `O=c1c2c(nc3cc(-c4ccccc4Cl)[nH]n13)CCS2`: the AC50 under setting [1] was 0.562 µM [falling, full curve].
For `O=[N+]([O-])c1ccc(C2=Nc3cc(Cl)ccc3OC2)cc1`, the AC50 under setting [1] was 0.355 µM [rising, full curve, poor fit].
`C=C(CC)C(=O)c1ccc(OCC(=O)O)c(Cl)c1Cl`: the AC50 was 12.6 µM [falling, partial curve] under setting [1] and 7.94 µM [rising, partial curve, poor fit] under setting [2].
With `COC(=O)c1cc(OC)c(OC)cc1NC(=O)CCCCCN1C(=O)CCC1=O`, the AC50 under setting [1] is 6.51 µM [falling, single point].
Still for that read-out and setting: the result for `CCOc1ccc2nc(N3CCN(C(=O)c4ccc(S(=O)(=O)CC)cc4)CC3)sc2c1` reads 7.94 µM [falling, partial curve].
On the same count and under the same terms, the result for `C=C(C)Cc1c(C)c(C#N)c2nc3ccccc3n2c1N1CCCCC1` reads 18.4 µM [rising, single point]; that for `O=C(N/N=C/c1c[nH]c2ccccc12)c1cccs1`, 11.2 µM [falling, partial curve, poor fit]; that for `CC(=O)COc1ncn(-c2ccccc2)n1`, 35.5 µM [rising, single point].
As for `COc1ccc(/C=N/NC(=O)c2nonc2C)cc1`, the AC50 is 5.8 µM [falling, partial curve] under setting [1] and 29.1 µM [rising, partial curve, poor fit] under setting [2].
For the compound `Cc1nc2cc(-n3ccc(=O)cc3)ccc2n1-c1ccccc1`, the AC50 under setting [1] was 1.84 µM [falling, full curve, poor fit].
Regarding `CC(C)(CO)Nc1nc(Cl)nc(NC2CCCCC2)n1`, the AC50 under setting [1] was 3.55 µM [falling, partial curve].
`CC(=O)Nc1ccc(S(=O)(=O)N(C)c2ccc(OCC(=O)OCC(=O)Nc3ccc(OC(F)F)cc3)cc2)cc1`: the AC50 under setting [1] is 12.6 µM [rising, single point].
Same read-out and setting: the result for `Cc1cc(C)c(NC(=O)CSc2nc3ccccc3c3nc(CCn4cncc4C)nn23)c(C)c1` reads 35.5 µM [rising, single point].
Still for that read-out and setting: the result for `CCS(=O)(=O)c1ccc2c(c1)N(S(=O)(=O)c1ccccc1)CC(C(=O)O)O2` (centres undefined) reads 3.98 µM [falling, single point].
